Taken from: PubChem BioAssay AID652243 (Drosophila RNAi Screening Center, 2013)
The screen tested about 24,000 reagents; this is an unselected part of those with a known target gene and a result. Over the whole deposit, 246 (1%) got an active call. 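Plates not normalised; calls are printed but the firefly/Renilla ratio behind them is not deposited; fold cut for lowering reported inconsistently.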 Raw values vary from plate to plate and are shown uncorrected. A number with no mark means an inactive call. The numbers tell different reagents against one gene apart. Not stated in the record: the amount of reagent.

Purpose: 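Fly regulators of androgen-dependent reporter output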 (primary screen)
System: Drosophila S2R+ cells
Reagent: long dsRNA against Drosophila genes
Duration: 72 h (48 h, then 24 h hormone)
Treatment: synthetic androgen R1881 at 10 nM for 24 h
Read-out: 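Firefly light from an androgen-responsive reporter and Renilla control light per well, raw and unnormalised, for each of two replicates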
Reading the numbers: firefly reporter light: higher = more light from androgen-responsive reporter; Renilla control light: higher = more constitutive control signal (cell number, transfection)
Rule for the call: 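Hit when the log firefly-to-Renilla ratio dropped or increased by a fixed fold versus the mean of GFP or LacZ controls across duplicate plates; lowering cut given as 1.5 and as 3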
Calls: active = hit: reporter lowered or raised; inactive = no hit

CG9467 scored firefly reporter light, replicate 1 = 78210; firefly reporter light, replicate 2 = 88142; Renilla control light, replicate 1 = 6.63e5; Renilla control light, replicate 2 = 9.15e5. With knock-down of S6KL #1 the results were firefly reporter light, replicate 1 = 8.60e5; firefly reporter light, replicate 2 = 1.09e6; Renilla control light, replicate 1 = 1.88e6; Renilla control light, replicate 2 = 2.07e6. Against S6KL #2 the deposit lists firefly reporter light, replicate 1 = 7.50e5; firefly reporter light, replicate 2 = 8.23e5; Renilla control light, replicate 1 = 1.58e6; Renilla control light, replicate 2 = 1.41e6. Depletion of CG5335 #1 resulted in: firefly reporter light, replicate 1 = 1.01e6; firefly reporter light, replicate 2 = 8.82e5; Renilla control light, replicate 1 = 2.08e6; Renilla control light, replicate 2 = 1.66e6. Knock-down of CG5335 #2 resulted in: firefly reporter light, replicate 1 = 3.78e5; firefly reporter light, replicate 2 = 3.67e5; Renilla control light, replicate 1 = 4.64e5; Renilla control light, replicate 2 = 4.24e5. Depletion of CG5569 gave: firefly reporter light, replicate 1 = 4.28e5; firefly reporter light, replicate 2 = 3.65e5; Renilla control light, replicate 1 = 2.11e6; Renilla control light, replicate 2 = 1.38e6.

With knock-down of CG34150, the screen gave firefly reporter light, replicate 1 = 8.28e5; firefly reporter light, replicate 2 = 7.70e5; Renilla control light, replicate 1 = 1.95e6; Renilla control light, replicate 2 = 1.78e6. For Pc the deposit lists firefly reporter light, replicate 1 = 5.25e5; firefly reporter light, replicate 2 = 3.53e5; Renilla control light, replicate 1 = 4.59e5; Renilla control light, replicate 2 = 4.10e5. With knock-down of crok #1, the record shows firefly reporter light, replicate 1 = 2.92e5; firefly reporter light, replicate 2 = 2.96e5; Renilla control light, replicate 1 = 2.79e6; Renilla control light, replicate 2 = 3.15e6. Against crok #2, the entry reads firefly reporter light, replicate 1 = 7.27e5; firefly reporter light, replicate 2 = 5.36e5; Renilla control light, replicate 1 = 1.85e6; Renilla control light, replicate 2 = 2.27e6. After knock-down of crok #3, the screen gave firefly reporter light, replicate 1 = 5.19e5; firefly reporter light, replicate 2 = 5.15e5; Renilla control light, replicate 1 = 1.24e6; Renilla control light, replicate 2 = 1.38e6. Knock-down of CG8323 gave: firefly reporter light, replicate 1 = 53225; firefly reporter light, replicate 2 = 70943; Renilla control light, replicate 1 = 1.11e6; Renilla control light, replicate 2 = 1.11e6.

eIF4E5 #1 showed firefly reporter light, replicate 1 = 96807; firefly reporter light, replicate 2 = 81901; Renilla control light, replicate 1 = 1.40e6; Renilla control light, replicate 2 = 1.36e6. Depletion of eIF4E5 #2 gave: firefly reporter light, replicate 1 = 3.12e5; firefly reporter light, replicate 2 = 3.79e5; Renilla control light, replicate 1 = 8.53e5; Renilla control light, replicate 2 = 7.70e5. Silencing of CG32152 resulted in: firefly reporter light, replicate 1 = 5.65e5; firefly reporter light, replicate 2 = 1.07e6; Renilla control light, replicate 1 = 6.38e5; Renilla control light, replicate 2 = 8.21e5. SdhC gave firefly reporter light, replicate 1 = 1.16e5; firefly reporter light, replicate 2 = 1.55e5; Renilla control light, replicate 1 = 1.73e6; Renilla control light, replicate 2 = 2.14e6. Silencing of CG4483 resulted in: firefly reporter light, replicate 1 = 5.86e5; firefly reporter light, replicate 2 = 5.59e5; Renilla control light, replicate 1 = 2.99e6; Renilla control light, replicate 2 = 3.54e6. Silencing of CG6527 resulted in: firefly reporter light, replicate 1 = 2.39e5; firefly reporter light, replicate 2 = 2.30e5; Renilla control light, replicate 1 = 2.66e6; Renilla control light, replicate 2 = 2.44e6.

Silencing of CG10226 came out at: firefly reporter light, replicate 1 = 1.05e6; firefly reporter light, replicate 2 = 8.42e5; Renilla control light, replicate 1 = 9.90e5; Renilla control light, replicate 2 = 1.16e6. Against CG8840, the values are firefly reporter light, replicate 1 = 1.14e5; firefly reporter light, replicate 2 = 1.11e5; Renilla control light, replicate 1 = 8.57e5; Renilla control light, replicate 2 = 1.11e6. Against CG32554 #1, the values are firefly reporter light, replicate 1 = 1.03e6; firefly reporter light, replicate 2 = 9.26e5; Renilla control light, replicate 1 = 9.93e5; Renilla control light, replicate 2 = 7.89e5. For CG32554 #2, the values are firefly reporter light, replicate 1 = 3.86e5; firefly reporter light, replicate 2 = 4.99e5; Renilla control light, replicate 1 = 1.30e6; Renilla control light, replicate 2 = 1.30e6. After knock-down of Hasp, the record shows firefly reporter light, replicate 1 = 1.07e6; firefly reporter light, replicate 2 = 1.07e6; Renilla control light, replicate 1 = 2.58e6; Renilla control light, replicate 2 = 2.16e6. For hd #1, the values are firefly reporter light, replicate 1 = 80553; firefly reporter light, replicate 2 = 1.20e5; Renilla control light, replicate 1 = 1.86e6; Renilla control light, replicate 2 = 1.63e6.

hd #2 gave firefly reporter light, replicate 1 = 3.91e5; firefly reporter light, replicate 2 = 3.19e5; Renilla control light, replicate 1 = 7.70e5; Renilla control light, replicate 2 = 5.60e5. Depletion of norpA came out at: firefly reporter light, replicate 1 = 1.07e5; firefly reporter light, replicate 2 = 81931; Renilla control light, replicate 1 = 9.09e5; Renilla control light, replicate 2 = 5.89e5. After knock-down of CG3808 the results were firefly reporter light, replicate 1 = 1.28e5; firefly reporter light, replicate 2 = 2.50e5; Renilla control light, replicate 1 = 9.08e5; Renilla control light, replicate 2 = 2.28e6.
